These are yes or no findings as the source states them, for the method shown.

By UniProt entry, the sequences of proteins in these tests, tags left out. Residues count along the entry.
UniProt P02769, residues 25-607: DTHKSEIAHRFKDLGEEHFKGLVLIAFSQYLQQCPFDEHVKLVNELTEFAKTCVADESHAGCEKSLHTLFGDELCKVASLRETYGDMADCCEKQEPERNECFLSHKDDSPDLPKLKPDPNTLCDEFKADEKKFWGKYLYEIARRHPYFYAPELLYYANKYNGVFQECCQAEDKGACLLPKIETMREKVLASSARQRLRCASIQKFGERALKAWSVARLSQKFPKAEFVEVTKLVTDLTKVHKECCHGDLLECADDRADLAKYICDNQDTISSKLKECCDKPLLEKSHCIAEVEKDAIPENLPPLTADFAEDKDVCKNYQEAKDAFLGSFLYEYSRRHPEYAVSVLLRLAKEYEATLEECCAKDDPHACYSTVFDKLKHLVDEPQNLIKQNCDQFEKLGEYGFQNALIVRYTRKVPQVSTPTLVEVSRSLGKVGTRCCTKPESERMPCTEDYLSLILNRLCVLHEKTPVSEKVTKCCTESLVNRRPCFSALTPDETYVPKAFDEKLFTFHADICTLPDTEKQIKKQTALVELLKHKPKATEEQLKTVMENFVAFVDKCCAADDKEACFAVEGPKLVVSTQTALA

In PMC8772937 one finds binding data, which are given here for 1 substance.

The target in the assay is T1, ZIP9 on L6 myogenic cells (rat (endogenous in L6)) (UniProt Q3KR82).
T1 sequence: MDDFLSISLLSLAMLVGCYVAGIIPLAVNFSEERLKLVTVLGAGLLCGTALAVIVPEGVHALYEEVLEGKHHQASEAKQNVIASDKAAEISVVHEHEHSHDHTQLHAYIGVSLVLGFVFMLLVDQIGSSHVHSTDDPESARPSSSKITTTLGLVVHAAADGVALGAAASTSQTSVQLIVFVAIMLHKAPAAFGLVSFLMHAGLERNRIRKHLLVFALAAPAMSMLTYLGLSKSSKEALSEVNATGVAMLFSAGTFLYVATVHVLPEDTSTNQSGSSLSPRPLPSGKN
Kind of assay: cell-surface labelling with a fluorescent conjugate (fluorescence microscopy); L6 cells incubated with 5 µM BSA-FITC in Tris buffer pH 7.2 for 20 min at room temperature; fixed, imaged; only the binder purified.

Turning to “BSA-FITC (lacking testosterone) (from UniProt P02769 25-607)”, the binding result is “no binding (tested: 5 µM)”.
